Source: paper doi:10.1101/2020.01.29.925610
No constants are given. Whether binding was seen depends on the method and setting. For part of these data: In cells and extracts the contact can be indirect. Some entries that bind do so weakly or less than the wild type. For part of these data: Tags and fused reporters may be left off the sequences shown. Values belong to the binder of their own block, whether it stands above or below them.

By UniProt entry, the sequences of proteins in these tests, tags left out. Where a name states a change or a piece, a line headed by the entry shows the natural chain unless it says otherwise. Residues count along the entry.
GST-SMO^Ctail (aa 543-793) (P56726, residues 543-793): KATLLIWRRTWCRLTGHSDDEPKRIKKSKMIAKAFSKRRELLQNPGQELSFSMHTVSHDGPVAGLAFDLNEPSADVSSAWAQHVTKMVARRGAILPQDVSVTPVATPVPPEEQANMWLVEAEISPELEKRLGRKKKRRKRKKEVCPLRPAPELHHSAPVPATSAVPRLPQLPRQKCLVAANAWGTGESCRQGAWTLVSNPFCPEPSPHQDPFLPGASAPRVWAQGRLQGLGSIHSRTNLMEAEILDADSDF
SMO^Ctail with the first 10 amino acids deleted, yeast two-hybrid construct (P56726, residues 553-793): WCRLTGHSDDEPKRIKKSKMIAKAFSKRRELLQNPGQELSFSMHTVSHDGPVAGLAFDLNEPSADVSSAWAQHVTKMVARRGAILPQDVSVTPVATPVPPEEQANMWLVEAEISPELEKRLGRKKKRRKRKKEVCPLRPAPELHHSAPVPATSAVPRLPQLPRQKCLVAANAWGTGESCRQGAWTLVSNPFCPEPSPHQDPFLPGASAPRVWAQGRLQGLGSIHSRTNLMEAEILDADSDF

Legend:
[1] = biological target: T1, GST-SMO^H8 (aa 543-559) (mouse) (UniProt P56726); test: pull-down
T1 sequence: KATLLIWRRTWCRLTGH

[2] = biological target: SMO^Ctail with the first 10 amino acids deleted, yeast two-hybrid construct (UniProt P56726); test: two-hybrid
[3] = biological target: T2, BBS2^C (residues 324-712), yeast two-hybrid construct (UniProt Q9BXC9); test: two-hybrid
T2 sequence: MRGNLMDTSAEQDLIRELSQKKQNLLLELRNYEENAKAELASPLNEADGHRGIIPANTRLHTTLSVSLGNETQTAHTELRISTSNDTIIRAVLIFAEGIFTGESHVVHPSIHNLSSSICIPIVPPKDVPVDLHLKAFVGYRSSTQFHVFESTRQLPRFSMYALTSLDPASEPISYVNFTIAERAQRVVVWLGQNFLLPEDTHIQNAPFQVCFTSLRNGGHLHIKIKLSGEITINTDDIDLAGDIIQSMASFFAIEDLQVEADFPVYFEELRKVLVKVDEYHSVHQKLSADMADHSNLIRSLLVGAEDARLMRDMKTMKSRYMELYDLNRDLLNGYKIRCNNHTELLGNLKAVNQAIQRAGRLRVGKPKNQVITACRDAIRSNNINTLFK

[4] = biological target: SMO^Ctail, yeast two-hybrid construct (UniProt P56726); test: two-hybrid
[5] = biological target: GST-SMO^Ctail (aa 543-793) (mouse) (UniProt P56726); test: pull-down

binding [1]: binds
B1: BBS7^βprop (aa 1-332), in vitro translated, 6xMyc (domain or fragment, UniProt Q8IWZ6-2 1-332)
chain: MDLILNRMDYLQVGVTSQKTMKLIPASRHRATQKVVIGDHDGVVMCFGMKKGEAAAVFKTLPGPKIARLELGGVINTPQEKIFIAAASEIRGFTKRGKQFLSFETNLTESIKAMHISGSDLFLSASYIYNHYCDCKDQHYYLSGDKINDVICLPVERLSRITPVLACQDRVLRVLQGSDVMYAVEVPGPPTVLALHNGNGGDSGEDLLFGTSDGKLALIQITTSKPVRKWEIQNEKKRGGILCIDSFDIVGDGVKDLLVGRDDGMVEVYSFDNANEPVLRFDQMLSESVTSIQGGCVGKDSYDEIVVSTYSGWVTGLTTEPIHKESGPGEEL

binding [2]: no binding
binding [3]: binds
binding [4]: binds
B2: BBS7^C (residues 326-672), yeast two-hybrid construct (domain or fragment, UniProt Q8IWZ6-2 326-672)
chain: SGPGEELKINQEMQNKISSLRNELEHLQYKVLQERENYQQSSQSSKAKSAVPSFGINDKFTLNKDDASYSLILEVQTAIDNVLIQSDVPIDLLDVDKNSAVVSFSSCDSESNDNFLLATYRCQADTTRLELKIRSIEGQYGTLQAYVTPRIQPKTCQVRQYHIKPLSLHQRTHFIDHDRPMNTLTLTGQFSFAEVHSWVVFCLPEVPEKPPAGECVTFYFQNTFLDTQLESTYRKGEGVFKSDNISTISILKDVLSKEATKRKINLNISYEINEVSVKHTLKLIHPKLEYQLLLAKKVQLIDALKELQIHEGNTNFLIPEYHCILEEADHLQEEYKKQPAHLERLYG

binding [5]: binds
binding [1]: binds
B3: BBS7, in vitro translated, tagged with a 6xMyc epitope (protein, UniProt Q8IWZ6-2 1-672)
chain: MDLILNRMDYLQVGVTSQKTMKLIPASRHRATQKVVIGDHDGVVMCFGMKKGEAAAVFKTLPGPKIARLELGGVINTPQEKIFIAAASEIRGFTKRGKQFLSFETNLTESIKAMHISGSDLFLSASYIYNHYCDCKDQHYYLSGDKINDVICLPVERLSRITPVLACQDRVLRVLQGSDVMYAVEVPGPPTVLALHNGNGGDSGEDLLFGTSDGKLALIQITTSKPVRKWEIQNEKKRGGILCIDSFDIVGDGVKDLLVGRDDGMVEVYSFDNANEPVLRFDQMLSESVTSIQGGCVGKDSYDEIVVSTYSGWVTGLTTEPIHKESGPGEELKINQEMQNKISSLRNELEHLQYKVLQERENYQQSSQSSKAKSAVPSFGINDKFTLNKDDASYSLILEVQTAIDNVLIQSDVPIDLLDVDKNSAVVSFSSCDSESNDNFLLATYRCQADTTRLELKIRSIEGQYGTLQAYVTPRIQPKTCQVRQYHIKPLSLHQRTHFIDHDRPMNTLTLTGQFSFAEVHSWVVFCLPEVPEKPPAGECVTFYFQNTFLDTQLESTYRKGEGVFKSDNISTISILKDVLSKEATKRKINLNISYEINEVSVKHTLKLIHPKLEYQLLLAKKVQLIDALKELQIHEGNTNFLIPEYHCILEEADHLQEEYKKQPAHLERLYG
